According to the supplement of paper PMC12067093, “Discovery and optimisation of a covalent ligand for TRIM25 and its application to targeted protein ubiquitination” (Chemical Science, 2025):
The list shows a part of the results.

Amino acid sequences for entries named in this document (tags omitted). A change or cut given only in a name is not applied to a line headed by its entry.
UniProt Q9Y4E5: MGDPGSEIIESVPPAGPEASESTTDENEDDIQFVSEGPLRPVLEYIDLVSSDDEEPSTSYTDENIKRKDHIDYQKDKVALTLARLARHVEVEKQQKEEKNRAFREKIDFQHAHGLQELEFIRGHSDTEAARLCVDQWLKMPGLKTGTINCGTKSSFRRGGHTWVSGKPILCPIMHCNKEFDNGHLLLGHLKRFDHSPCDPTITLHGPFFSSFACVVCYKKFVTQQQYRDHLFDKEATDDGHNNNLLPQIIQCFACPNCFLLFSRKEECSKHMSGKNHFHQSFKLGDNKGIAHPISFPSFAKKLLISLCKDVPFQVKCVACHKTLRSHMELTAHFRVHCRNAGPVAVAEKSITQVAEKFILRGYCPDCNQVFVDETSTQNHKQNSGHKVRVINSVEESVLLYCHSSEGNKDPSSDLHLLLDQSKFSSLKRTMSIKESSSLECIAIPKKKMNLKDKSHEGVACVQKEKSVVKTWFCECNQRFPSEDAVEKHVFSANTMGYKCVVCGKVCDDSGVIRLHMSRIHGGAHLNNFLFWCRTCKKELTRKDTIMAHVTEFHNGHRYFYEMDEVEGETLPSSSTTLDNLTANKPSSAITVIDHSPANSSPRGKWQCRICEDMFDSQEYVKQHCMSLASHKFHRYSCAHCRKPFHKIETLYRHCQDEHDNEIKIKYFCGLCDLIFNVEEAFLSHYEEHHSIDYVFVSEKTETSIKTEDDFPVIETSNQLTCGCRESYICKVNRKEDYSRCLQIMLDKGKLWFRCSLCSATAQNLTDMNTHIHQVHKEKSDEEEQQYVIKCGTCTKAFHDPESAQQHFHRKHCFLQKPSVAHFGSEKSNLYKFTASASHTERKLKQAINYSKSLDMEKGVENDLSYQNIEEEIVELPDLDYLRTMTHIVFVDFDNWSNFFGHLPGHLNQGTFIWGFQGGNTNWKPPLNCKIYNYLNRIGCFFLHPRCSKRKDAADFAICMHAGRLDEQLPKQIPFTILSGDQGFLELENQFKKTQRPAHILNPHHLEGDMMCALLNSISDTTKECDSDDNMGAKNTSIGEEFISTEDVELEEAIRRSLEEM
UniProt P17026: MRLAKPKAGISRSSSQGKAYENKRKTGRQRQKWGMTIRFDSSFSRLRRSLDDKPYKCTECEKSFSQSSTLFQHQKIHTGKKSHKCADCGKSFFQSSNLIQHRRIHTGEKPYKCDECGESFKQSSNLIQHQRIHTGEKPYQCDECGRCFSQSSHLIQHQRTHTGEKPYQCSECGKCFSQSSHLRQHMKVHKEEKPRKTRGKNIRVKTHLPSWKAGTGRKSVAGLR
UniProt Q86UK7: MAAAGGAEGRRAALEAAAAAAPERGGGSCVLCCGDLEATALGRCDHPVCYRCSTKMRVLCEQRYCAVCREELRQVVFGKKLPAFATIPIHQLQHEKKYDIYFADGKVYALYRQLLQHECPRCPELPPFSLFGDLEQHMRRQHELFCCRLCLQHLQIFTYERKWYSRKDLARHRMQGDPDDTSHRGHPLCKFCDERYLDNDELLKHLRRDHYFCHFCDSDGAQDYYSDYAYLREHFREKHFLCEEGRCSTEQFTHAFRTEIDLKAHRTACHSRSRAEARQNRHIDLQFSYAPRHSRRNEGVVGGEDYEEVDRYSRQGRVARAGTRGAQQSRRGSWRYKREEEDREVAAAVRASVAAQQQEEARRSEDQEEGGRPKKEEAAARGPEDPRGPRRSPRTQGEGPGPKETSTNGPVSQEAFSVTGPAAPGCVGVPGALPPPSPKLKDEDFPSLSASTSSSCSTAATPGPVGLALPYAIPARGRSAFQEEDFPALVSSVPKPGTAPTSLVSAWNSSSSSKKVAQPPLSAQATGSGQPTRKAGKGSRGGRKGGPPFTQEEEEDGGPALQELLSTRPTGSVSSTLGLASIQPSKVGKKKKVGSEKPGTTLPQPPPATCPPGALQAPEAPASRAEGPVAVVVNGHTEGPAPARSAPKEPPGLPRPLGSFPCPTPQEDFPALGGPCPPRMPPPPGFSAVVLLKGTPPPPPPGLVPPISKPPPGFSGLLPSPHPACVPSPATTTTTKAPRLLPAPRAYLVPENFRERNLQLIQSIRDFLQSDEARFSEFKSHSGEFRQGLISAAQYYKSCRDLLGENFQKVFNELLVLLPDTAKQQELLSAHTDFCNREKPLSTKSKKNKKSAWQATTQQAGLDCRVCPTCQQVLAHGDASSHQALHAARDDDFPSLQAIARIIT
UniProt Q92610: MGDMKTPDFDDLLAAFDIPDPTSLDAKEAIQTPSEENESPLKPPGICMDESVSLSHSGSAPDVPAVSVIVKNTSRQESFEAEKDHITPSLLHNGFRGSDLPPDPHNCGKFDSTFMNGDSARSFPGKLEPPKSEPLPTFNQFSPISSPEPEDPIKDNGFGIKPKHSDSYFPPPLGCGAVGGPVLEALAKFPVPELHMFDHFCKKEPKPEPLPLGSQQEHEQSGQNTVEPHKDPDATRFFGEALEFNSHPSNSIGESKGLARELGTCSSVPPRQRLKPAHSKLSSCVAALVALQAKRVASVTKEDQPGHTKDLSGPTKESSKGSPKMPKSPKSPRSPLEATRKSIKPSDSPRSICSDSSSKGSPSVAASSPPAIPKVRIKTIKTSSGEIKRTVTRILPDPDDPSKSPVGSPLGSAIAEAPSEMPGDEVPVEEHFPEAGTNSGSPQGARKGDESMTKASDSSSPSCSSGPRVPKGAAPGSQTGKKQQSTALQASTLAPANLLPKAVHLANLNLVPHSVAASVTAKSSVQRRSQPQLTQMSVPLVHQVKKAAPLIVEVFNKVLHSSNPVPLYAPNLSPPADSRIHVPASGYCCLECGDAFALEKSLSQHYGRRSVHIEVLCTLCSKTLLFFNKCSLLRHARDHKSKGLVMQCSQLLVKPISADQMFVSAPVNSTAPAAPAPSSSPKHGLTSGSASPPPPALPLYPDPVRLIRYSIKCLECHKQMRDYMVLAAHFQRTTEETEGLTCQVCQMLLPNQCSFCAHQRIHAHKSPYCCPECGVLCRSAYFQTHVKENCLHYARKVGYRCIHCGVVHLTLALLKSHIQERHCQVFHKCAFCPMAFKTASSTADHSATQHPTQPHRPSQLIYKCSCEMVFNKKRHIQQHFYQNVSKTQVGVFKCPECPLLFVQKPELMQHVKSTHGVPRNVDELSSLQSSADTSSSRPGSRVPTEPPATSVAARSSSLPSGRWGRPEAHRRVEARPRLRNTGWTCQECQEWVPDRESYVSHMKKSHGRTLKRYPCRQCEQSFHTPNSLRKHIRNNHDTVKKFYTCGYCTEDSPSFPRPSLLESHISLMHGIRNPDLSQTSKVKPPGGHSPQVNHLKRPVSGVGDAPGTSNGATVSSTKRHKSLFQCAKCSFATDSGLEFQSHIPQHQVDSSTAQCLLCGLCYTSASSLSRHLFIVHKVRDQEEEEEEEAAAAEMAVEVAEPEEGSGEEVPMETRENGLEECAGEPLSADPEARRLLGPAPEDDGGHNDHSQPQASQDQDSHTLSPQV
UniProt Q9Y3S2: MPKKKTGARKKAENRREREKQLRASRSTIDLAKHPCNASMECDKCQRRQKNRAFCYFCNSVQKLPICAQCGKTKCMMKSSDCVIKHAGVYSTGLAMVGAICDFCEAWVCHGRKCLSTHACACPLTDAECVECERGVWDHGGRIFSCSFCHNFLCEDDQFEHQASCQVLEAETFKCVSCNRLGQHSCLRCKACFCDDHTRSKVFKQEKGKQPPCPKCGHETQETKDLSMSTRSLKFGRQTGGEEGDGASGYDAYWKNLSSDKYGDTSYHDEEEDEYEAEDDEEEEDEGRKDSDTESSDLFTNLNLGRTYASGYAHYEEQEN
UniProt Q5VZL5: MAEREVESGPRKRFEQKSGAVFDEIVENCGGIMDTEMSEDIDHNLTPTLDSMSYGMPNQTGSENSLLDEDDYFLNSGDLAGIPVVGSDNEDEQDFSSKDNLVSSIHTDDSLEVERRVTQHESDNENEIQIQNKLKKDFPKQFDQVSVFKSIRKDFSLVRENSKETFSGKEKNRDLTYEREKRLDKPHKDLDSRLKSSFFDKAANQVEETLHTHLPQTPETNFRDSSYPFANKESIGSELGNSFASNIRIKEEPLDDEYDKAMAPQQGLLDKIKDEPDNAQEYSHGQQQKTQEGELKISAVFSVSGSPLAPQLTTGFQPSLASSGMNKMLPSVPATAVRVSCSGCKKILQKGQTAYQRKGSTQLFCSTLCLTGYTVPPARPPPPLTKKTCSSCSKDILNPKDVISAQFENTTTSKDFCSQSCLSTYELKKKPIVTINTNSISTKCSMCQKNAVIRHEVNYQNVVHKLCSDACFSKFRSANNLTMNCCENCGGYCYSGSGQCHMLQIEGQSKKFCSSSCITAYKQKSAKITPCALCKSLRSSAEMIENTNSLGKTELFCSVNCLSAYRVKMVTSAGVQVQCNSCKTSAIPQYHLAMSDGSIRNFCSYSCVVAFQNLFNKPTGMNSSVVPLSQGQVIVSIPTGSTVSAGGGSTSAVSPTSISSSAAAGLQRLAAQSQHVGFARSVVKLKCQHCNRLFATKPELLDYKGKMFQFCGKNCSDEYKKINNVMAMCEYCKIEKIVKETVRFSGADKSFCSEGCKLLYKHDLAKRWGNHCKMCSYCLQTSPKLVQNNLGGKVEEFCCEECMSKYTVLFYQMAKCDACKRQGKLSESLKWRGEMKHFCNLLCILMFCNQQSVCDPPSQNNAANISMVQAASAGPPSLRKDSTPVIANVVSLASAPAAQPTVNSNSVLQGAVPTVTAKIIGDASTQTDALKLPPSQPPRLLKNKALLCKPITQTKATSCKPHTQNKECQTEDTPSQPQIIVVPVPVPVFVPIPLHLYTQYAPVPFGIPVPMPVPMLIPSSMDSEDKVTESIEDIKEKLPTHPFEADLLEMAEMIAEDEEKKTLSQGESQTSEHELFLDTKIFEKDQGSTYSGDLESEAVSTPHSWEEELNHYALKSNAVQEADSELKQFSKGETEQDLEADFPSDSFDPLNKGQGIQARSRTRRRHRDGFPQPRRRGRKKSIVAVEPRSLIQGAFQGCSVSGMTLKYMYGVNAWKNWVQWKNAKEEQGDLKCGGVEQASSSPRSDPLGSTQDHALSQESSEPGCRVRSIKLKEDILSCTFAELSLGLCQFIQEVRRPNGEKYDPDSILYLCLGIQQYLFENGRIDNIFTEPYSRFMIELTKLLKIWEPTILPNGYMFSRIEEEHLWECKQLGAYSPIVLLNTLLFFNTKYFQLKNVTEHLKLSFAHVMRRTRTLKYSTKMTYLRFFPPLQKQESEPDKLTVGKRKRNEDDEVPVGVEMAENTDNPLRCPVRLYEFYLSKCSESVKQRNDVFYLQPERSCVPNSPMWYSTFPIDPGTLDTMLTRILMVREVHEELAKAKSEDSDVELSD
UniProt Q5T7W0: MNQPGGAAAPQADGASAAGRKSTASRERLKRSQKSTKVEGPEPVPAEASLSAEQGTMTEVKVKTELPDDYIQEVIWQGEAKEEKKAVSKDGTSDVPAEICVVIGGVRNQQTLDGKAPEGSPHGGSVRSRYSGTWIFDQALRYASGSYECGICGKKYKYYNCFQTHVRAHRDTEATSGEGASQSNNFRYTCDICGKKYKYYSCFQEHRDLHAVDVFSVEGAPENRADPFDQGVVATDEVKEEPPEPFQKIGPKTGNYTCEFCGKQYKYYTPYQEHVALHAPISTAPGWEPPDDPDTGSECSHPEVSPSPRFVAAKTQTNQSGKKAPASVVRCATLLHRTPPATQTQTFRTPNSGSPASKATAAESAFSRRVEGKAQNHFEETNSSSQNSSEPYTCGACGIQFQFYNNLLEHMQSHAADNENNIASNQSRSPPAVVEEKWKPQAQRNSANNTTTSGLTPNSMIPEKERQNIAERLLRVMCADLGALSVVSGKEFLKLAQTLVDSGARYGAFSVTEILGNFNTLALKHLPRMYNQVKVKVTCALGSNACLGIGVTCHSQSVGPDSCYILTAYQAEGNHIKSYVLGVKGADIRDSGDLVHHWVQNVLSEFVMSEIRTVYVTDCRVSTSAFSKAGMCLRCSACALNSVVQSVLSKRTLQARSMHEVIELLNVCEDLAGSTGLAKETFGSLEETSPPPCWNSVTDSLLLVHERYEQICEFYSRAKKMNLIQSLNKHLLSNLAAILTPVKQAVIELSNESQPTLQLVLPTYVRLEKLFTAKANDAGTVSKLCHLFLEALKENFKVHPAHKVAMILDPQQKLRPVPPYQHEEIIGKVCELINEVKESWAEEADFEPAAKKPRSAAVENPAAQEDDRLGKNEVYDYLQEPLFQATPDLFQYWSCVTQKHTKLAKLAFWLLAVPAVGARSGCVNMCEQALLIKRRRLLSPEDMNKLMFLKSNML
UniProt O95159: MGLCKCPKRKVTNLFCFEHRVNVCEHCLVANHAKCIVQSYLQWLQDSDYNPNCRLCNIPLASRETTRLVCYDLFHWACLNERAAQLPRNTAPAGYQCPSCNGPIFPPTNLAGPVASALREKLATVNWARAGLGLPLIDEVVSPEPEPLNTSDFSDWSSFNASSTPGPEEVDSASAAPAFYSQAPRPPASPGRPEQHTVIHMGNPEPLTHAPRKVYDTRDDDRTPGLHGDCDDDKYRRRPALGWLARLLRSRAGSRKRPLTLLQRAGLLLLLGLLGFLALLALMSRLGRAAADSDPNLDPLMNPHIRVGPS

Compound: Cc1cc(ccc1-c1ccccc1)C(=O)N1CCCN(CC1)C(=O)CCl [compound 10]
Test: probe-labelled cysteine peptide fold change vs DMSO (competition) (log2 fold change); higher = less target engagement (more negative = stronger competition)
Details: THP-1, incubation time: 4 h
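Note: competitive profiling in live THP-1 cells: cysteine peptides tagged with an iodoacetamide desthiobiotin (IA-DTB) probe, intensity after compound treatment relative to DMSO-treated cells.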

Row | Target | probe-labelled cysteine peptide fold change (10 µM) | probe-labelled cysteine peptide fold change (50 µM)
1 | ZNF512_Q96ME7_324_SEHGPISFFPESGQPECLK (UniProt Q96ME7) | 0.231 | -0.00904
2 | ZNF451_Q9Y4E5_364+367_GYCPDCNQVFVDETSTQNHK (UniProt Q9Y4E5) | -0.298 | -0.0836
3 | ZNF746_Q6NUN9_518_CFTRPAHLIR (UniProt Q6NUN9) | 0.201 | -0.0967
4 | ZMYM2_Q9UBW7_608_LYNFCNSSCVAK (UniProt Q9UBW7) | -0.186 | -1.35
5 | ZNF451_Q9Y4E5_176_GGHTWVSGKPILCPIMHCNK (UniProt Q9Y4E5) | -0.0384 | -0.279
6 | ZNF22_P17026_113_CDECGESFK (UniProt P17026) | 0.124 | 0.512
7 | ZNF598_Q86UK7_867_VCPTCQQVLAHGDASSHQALHAAR (UniProt Q86UK7) | 0.228 | 0.187
8 | ZNF598_Q86UK7_44_CDHPVCYR (UniProt Q86UK7) | 0.0102 | -0.161
9 | ZNF292_O60281_982_QENSTVEGSGEALVTDLHTPVEDTCNDLCHPGFQER (UniProt O60281) | -0.534 | -0.289
10 | ZNF592_Q92610_790_ENCLHYAR (UniProt Q92610) | 0.0985 | 0.121
11 | ZNF326_Q5BKZ1_314_MAFTCSFCK (UniProt Q5BKZ1) | -0.00707 | -0.272
12 | ZNF280C_Q8ND82_388_ICELSFETEHILLQHMK (UniProt Q8ND82) | 0.00547 | 0.0405
13 | ZNF280D_Q6N043_630_CIECCSEIK (UniProt Q6N043) | 0.0174 | 0.255
14 | ZNF710_Q8N1W2_91_ALEEPAEEEVLEVEAACEK (UniProt Q8N1W2) | -0.174 | 0.013
15 | ZMYM3_Q14202_633+636_GVVSQCEHCR (UniProt Q14202) | 0.0381 | -0.705
16 | ZNF638_Q14966_688_EQSLHYGSVLLITELPEDGCTEEDVRK (UniProt Q14966) | 0.19 | 0.131
17 | ZNF451_Q9Y4E5_507_VCDDSGVIR (UniProt Q9Y4E5) | -0.125 | -0.101
18 | ZFYVE19_Q96K21_435_CAGCDGDLFCAR (UniProt Q96K21) | 0.0027 | -0.124
19 | ZNF330_Q9Y3S2_67+70_LPICAQCGK (UniProt Q9Y3S2) | -0.0938 | -0.949
20 | ZFR_Q96KR1_333_QPPKPPQIHYCDVCK (UniProt Q96KR1) | 0.388 | 0.0938

An excerpt of these results, as labelled records.
ZNF598_Q86UK7_867_VCPTCQQVLAHGDASSHQALHAAR (UniProt Q86UK7)
  probe-labelled cysteine peptide fold change (10 µM) = 0.228
  probe-labelled cysteine peptide fold change (50 µM) = 0.187
ZNF598_Q86UK7_44_CDHPVCYR (UniProt Q86UK7)
  probe-labelled cysteine peptide fold change (10 µM) = 0.0102
  probe-labelled cysteine peptide fold change (50 µM) = -0.161
ZNF292_O60281_982_QENSTVEGSGEALVTDLHTPVEDTCNDLCHPGFQER (UniProt O60281)
  probe-labelled cysteine peptide fold change (10 µM) = -0.534
  probe-labelled cysteine peptide fold change (50 µM) = -0.289

Next part.

Row | Target | probe-labelled cysteine peptide fold change (10 µM) | probe-labelled cysteine peptide fold change (50 µM)
21 | ZNF330_Q9Y3S2_82_SSDCVIK (UniProt Q9Y3S2) | -0.0194 | -0.239
22 | ZFX_P17010_664_CDMCDK (UniProt P17010) | 0.213 | 0.0294
23 | ZMYM4_Q5VZL5_948_ALLCKPITQTK (UniProt Q5VZL5) | -0.197 | -0.499
24 | ZHX3_Q9H4I2_11_STTPCMIPVK (UniProt Q9H4I2) | -0.138 | -0.298
25 | ZNF483_Q8TF39_392_IHLGDRSQKCSK (UniProt Q8TF39) | -0.0771 | -0.64
26 | ZNF618_Q5T7W0_100_DGTSDVPAEICVVIGGVR (UniProt Q5T7W0) | -0.0618 | -0.217
27 | ZFPL1_O95159_16_VTNLFCFEHR (UniProt O95159) | 0.0473 | 0.0924
28 | ZMYM4_Q5VZL5_1499_SCVPNSPMWYSTFPIDPGTLDTMLTR (UniProt Q5VZL5) | -0.668 | -0.33
29 | ZFYVE1_Q9HBF4_45_CEEELHRQER (UniProt Q9HBF4) | 0.0583 | -0.322
30 | ZNF516_Q92618_165_KGAEGSACAPGEAK (UniProt Q92618) | 0.0165 | -0.317
31 | ZMIZ2_Q8NF64_564_LLPAEHCITK (UniProt Q8NF64) | -0.0415 | -0.113
32 | ZFYVE1_Q9HBF4_302_CGLDVPLSTLGPAVIIFHETVHTQLLGSDHPSEVPEK (UniProt Q9HBF4) | -0.00207 | 0.0408
33 | ZFPL1_O95159_24_VNVCEHCLVANHAK (UniProt O95159) | -0.0025 | -0.113
34 | ZNF592_Q92610_648_GLVMQCSQLLVK (UniProt Q92610) | 0.0258 | -0.148
35 | ZNF597_Q96LX8_386_TCEESFALDSELACHQK (UniProt Q96LX8) | -0.109 | -0.443
36 | ZNF668_Q96K58_198_THAGLRPYSCER (UniProt Q96K58) | 0.165 | -0.0308
37 | ZNF106_Q9H2Y7_457_SPLLPCPATK (UniProt Q9H2Y7) | -0.342 | -0.491
38 | ZNF592_Q92610_201_FPVPELHMFDHFCK (UniProt Q92610) | -0.148 | -0.161
39 | ZNF672_Q499Z4_204_VSDAHQCGVCGK (UniProt Q499Z4) | 0.113 | 0.151
